From doi:10.1101/2021.02.12.430872 come the findings set out here.

Protein sequences, listed by entry. Tags and fused reporters are not part of them.
UniProt O43166: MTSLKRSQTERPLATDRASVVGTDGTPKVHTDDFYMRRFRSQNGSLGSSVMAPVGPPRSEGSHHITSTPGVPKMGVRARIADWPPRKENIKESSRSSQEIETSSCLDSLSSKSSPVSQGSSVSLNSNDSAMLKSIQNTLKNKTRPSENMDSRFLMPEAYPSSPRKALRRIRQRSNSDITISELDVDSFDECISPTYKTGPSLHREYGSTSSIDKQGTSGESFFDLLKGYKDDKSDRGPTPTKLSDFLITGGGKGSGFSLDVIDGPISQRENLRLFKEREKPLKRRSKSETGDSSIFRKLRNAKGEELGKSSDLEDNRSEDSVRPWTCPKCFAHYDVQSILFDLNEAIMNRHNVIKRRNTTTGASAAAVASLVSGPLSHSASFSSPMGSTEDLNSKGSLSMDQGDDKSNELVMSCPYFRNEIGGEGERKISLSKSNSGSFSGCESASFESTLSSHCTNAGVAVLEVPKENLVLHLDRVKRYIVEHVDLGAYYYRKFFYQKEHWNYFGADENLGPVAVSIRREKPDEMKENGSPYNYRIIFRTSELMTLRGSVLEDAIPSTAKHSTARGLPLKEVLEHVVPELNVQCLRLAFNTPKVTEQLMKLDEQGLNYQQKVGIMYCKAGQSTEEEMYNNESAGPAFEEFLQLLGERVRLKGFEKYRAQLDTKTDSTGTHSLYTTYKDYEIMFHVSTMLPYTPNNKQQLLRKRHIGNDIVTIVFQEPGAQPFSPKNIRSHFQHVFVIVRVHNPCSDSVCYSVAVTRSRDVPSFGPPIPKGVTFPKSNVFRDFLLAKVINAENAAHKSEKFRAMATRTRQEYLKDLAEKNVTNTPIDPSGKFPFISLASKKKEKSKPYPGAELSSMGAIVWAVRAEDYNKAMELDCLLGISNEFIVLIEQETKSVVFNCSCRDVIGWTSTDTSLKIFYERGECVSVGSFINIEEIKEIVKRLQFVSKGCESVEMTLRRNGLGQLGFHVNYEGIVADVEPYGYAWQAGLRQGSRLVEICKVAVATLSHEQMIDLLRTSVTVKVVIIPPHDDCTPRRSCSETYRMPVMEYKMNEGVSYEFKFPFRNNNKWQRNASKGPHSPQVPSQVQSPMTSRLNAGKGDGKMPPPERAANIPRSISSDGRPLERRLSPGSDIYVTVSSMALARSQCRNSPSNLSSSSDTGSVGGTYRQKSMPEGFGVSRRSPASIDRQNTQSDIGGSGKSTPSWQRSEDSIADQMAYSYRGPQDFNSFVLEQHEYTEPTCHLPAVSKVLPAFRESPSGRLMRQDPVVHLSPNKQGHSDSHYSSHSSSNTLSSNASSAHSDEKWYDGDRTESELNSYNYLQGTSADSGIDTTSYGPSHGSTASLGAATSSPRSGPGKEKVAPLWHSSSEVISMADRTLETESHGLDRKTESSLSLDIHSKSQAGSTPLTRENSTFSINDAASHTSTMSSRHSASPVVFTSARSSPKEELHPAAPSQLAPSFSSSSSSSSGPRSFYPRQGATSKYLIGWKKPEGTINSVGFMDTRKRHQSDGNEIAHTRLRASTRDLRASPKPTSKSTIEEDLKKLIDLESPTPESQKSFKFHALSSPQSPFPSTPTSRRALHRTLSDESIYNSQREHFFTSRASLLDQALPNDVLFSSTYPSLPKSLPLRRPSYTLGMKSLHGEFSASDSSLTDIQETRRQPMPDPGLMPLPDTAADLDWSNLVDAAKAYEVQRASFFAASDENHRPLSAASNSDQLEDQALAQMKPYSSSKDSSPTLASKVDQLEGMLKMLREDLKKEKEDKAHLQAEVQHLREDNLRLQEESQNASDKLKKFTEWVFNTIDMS
UniProt Q96SB3: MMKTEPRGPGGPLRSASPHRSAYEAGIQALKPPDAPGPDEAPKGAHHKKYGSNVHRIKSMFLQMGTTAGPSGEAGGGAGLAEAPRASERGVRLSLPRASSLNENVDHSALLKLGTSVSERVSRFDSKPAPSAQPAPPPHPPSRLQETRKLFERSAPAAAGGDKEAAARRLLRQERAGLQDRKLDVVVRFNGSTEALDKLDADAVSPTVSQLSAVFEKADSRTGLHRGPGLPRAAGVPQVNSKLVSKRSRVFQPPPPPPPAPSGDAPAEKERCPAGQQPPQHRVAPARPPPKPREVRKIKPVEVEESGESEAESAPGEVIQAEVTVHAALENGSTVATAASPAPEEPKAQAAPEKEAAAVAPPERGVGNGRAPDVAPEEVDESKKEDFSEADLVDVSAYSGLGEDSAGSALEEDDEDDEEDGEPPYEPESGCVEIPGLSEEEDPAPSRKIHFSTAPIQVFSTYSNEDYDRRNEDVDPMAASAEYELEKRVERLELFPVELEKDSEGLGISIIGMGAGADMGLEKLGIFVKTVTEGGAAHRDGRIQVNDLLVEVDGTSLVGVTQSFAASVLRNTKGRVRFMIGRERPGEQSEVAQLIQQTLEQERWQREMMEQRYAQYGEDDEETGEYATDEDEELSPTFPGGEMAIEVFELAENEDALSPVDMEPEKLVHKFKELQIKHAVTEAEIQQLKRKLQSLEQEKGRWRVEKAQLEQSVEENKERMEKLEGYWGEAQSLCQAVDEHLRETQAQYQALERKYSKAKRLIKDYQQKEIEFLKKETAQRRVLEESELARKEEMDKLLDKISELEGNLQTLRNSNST
UniProt A2AHG0: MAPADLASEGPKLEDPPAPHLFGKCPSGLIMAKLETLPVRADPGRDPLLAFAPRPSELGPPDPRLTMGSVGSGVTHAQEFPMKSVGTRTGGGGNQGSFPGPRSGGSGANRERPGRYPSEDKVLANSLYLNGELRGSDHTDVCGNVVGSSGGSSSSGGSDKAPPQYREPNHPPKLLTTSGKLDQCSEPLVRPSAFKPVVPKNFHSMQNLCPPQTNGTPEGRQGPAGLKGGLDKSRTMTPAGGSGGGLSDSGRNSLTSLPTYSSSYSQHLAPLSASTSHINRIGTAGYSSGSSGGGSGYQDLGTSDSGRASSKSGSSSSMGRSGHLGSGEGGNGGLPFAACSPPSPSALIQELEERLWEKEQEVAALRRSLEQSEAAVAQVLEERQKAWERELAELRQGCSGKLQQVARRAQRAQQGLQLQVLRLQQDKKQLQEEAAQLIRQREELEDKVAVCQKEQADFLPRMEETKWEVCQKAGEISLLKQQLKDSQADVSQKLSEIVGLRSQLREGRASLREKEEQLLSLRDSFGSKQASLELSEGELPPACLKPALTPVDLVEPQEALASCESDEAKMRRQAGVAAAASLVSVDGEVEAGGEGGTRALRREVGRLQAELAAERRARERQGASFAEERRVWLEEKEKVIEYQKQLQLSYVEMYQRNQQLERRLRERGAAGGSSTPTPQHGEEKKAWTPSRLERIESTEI
UniProt Q6R891: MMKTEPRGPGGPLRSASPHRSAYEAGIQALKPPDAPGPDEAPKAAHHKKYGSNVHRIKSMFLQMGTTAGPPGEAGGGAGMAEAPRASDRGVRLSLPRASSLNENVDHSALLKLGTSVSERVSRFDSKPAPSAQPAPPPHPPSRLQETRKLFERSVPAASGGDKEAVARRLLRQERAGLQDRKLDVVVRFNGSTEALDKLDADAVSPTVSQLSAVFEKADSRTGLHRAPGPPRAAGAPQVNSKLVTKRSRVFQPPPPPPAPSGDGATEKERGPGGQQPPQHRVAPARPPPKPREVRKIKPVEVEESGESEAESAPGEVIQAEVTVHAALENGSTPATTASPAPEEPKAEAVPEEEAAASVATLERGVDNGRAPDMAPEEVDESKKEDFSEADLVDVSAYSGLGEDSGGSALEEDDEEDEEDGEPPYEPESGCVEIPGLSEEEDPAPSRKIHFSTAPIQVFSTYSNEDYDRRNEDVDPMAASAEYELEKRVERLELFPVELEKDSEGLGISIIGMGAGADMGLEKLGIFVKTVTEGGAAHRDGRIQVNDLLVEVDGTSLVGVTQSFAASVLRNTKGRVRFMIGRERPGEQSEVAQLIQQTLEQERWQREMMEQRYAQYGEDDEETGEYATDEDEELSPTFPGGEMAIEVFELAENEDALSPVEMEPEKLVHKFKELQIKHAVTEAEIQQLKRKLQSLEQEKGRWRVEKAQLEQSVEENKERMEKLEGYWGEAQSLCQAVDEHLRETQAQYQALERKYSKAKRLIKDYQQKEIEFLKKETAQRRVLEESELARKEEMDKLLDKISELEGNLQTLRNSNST
UniProt Q7TPR4: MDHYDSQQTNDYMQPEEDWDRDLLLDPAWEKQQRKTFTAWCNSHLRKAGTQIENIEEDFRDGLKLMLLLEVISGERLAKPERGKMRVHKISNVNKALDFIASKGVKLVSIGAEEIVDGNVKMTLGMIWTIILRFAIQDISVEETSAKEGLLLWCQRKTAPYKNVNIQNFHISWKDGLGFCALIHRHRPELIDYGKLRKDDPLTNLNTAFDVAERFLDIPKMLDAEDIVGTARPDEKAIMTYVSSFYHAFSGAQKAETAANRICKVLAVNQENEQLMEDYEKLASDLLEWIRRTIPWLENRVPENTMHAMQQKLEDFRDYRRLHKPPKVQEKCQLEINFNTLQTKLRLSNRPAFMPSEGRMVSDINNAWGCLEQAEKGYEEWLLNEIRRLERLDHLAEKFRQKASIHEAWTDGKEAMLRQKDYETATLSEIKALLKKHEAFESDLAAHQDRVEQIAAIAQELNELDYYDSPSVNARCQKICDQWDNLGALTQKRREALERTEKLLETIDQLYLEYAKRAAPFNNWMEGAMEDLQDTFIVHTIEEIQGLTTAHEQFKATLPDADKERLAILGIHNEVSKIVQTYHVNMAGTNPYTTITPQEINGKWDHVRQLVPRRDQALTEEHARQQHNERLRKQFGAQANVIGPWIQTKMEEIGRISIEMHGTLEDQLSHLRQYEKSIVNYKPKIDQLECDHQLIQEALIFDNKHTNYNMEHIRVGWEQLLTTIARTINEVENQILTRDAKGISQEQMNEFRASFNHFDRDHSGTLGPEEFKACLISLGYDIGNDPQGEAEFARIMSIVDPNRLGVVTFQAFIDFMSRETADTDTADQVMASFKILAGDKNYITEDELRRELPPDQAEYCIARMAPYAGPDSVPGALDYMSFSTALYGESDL

Results are given in words; binding and its absence hold for the method and conditions named. In cells and extracts the contact can be indirect. Some binding calls cover weakened binding; strength is not graded here.

Assay in all cases: co-IP
The target in test [1] is Myc-tagged SIPA1L1 (human) (UniProt O43166).
The target in test [2] is Signal-induced proliferation-associated 1 (SIPA1)-like 1 (SIPA1L1) (mouse (endogenous in brain)) (UniProt Q8C0T5).
The target of test [3] is T1, Signal-induced proliferation-associated 1 (SIPA1)-like 1 (SIPA1L1) (mouse (endogenous in brain)), Q8C0T5.
T1 chain: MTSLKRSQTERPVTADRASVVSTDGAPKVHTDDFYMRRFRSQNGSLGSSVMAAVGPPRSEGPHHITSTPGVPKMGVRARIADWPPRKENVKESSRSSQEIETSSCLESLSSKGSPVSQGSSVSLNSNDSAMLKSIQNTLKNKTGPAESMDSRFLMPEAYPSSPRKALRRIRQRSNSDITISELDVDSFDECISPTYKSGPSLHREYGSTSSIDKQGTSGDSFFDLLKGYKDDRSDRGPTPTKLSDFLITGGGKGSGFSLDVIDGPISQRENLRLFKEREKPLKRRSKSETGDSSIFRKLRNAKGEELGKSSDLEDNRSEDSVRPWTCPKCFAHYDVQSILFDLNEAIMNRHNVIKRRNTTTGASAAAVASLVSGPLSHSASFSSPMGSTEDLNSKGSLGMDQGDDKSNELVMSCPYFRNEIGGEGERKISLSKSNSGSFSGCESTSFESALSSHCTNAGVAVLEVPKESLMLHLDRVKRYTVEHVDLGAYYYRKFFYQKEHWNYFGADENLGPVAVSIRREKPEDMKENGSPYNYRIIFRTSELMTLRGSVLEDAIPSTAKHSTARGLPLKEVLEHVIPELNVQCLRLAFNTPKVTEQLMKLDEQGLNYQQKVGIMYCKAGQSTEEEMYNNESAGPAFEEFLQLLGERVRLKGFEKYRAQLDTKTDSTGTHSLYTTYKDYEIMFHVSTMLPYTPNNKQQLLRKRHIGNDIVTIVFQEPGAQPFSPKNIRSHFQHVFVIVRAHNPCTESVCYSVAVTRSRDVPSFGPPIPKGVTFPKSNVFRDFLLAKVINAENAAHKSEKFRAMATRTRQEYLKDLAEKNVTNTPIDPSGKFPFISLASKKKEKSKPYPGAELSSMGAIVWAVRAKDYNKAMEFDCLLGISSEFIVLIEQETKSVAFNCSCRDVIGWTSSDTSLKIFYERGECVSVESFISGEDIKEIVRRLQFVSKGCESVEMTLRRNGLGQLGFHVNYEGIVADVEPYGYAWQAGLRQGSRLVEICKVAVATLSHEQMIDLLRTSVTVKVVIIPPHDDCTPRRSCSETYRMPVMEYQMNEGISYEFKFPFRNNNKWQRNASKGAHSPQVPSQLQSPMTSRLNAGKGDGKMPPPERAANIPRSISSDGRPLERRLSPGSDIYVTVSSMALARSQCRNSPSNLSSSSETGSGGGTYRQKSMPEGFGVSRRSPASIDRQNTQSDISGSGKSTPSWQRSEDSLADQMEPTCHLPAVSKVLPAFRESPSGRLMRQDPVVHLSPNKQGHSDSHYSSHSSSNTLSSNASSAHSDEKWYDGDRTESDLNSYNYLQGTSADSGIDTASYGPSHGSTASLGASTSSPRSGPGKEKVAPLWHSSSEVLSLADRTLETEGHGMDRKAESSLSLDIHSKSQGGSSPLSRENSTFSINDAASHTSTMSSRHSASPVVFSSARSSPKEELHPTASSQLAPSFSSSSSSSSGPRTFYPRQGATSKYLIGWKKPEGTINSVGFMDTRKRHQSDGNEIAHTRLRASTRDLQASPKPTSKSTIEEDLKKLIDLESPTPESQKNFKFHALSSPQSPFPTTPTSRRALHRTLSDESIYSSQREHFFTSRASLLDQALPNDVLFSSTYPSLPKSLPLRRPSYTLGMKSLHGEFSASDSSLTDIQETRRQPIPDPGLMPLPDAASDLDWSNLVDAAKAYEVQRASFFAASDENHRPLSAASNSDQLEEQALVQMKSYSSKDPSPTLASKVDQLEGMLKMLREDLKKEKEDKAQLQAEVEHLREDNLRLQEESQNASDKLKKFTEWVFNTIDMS
The settings on record: remark: other sources report otherwise.

With “FLAG-tagged spinophilin (from UniProt Q96SB3 1-817)”, the binding entry in test [1] is “binds”.

With “LZTS3/Pro-SAPiP1 (from UniProt A2AHG0 1-700)”, the binding entry in test [2] is on record as “binds”.

In the case of “spinophilin (neurabin-2/PP1R9B) (from UniProt Q6R891 1-817)”, the binding result in test [2] was “binds”.

As for α-actinin-1 (from UniProt Q7TPR4 1-892), in test [2], the binding result is “binds”.

B1: neuroligin-1, Q99K10 46-843 (protein)
chain: QKLDDVDPLVTTNFGKIRGIKKELNNEILGPVIQFLGVPYAAPPTGEHRFQPPEPPSPWSDIRNATQFAPVCPQNIIDGRLPEVMLPVWFTNNLDVVSSYVQDQSEDCLYLNIYVPTEDGPLTKKHTDDLGDNDGAEDEDIRDSGGPKPVMVYIHGGSYMEGTGNLYDGSVLASYGNVIVITVNYRLGVLGFLSTGDQAAKGNYGLLDLIQALRWTSENIGFFGGDPLRITVFGSGAGGSCVNLLTLSHYSEGNRWSNSTKGLFQRAIAQSGTALSSWAVSFQPAKYARILATKVGCNVSDTVELVECLQKKPYKELVDQDVQPARYHIAFGPVIDGDVIPDDPQILMEQGEFLNYDIMLGVNQGEGLKFVENIVDSDDGVSASDFDFAVSNFVDNLYGYPEGKDVLRETIKFMYTDWADRHNPETRRKTLLALFTDHQWVAPAVATADLHSNFGSPTYFYAFYHHCQTDQVPAWADAAHGDEVPYVLGIPMIGPTELFPCNFSKNDVMLSAVVMTYWTNFAKTGDPNQPVPQDTKFIHTKPNRFEEVAWTRYSQKDQLYLHIGLKPRVKEHYRANKVNLWLELVPHLHNLNDISQYTSTTTKVPSTDITLRPTRKNSTPVTSAFPTAKQDDPKQQPSPFSVDQRDYSTELSVTIAVGASLLFLNILAFAALYYKKDKRRHDVHRRCSPQRTTTNDLTHAPEEEIMSLQMKHTDLDHECESIHPHEVVLRTACPPDYTLAMRRSPDDIPLMTPNTITMIPNTIPGIQPLHTFNTFTGGQNNTLPHPHPHPHSHSTTRV
Consider B1, for which the binding entry in test [3] is listed as “no binding”.

B2: LZTS1/PSD-Zip70 (protein, UniProt P60853 1-599)
chain: MGSVSSLISGHSFHSKHCRASQYKLRKSSHLKKLNRYSDGLLRFGFSQDSGRGKSSSKMGKSEDFFYIKVSQKARGSHRPDYTALSSGDIGGQTGVDFDPATPPKLMPFSNQLEMSSDKGAVRPTAFKPVLPRSGAILHSSPESTSHQLHPMPPDKPKEQELKPGLCSGALSDSGRNSMSSLPTHSTTSSYQLDPLVTPVGPTSRFGGSAHNITQGIILQDSNMMSLKALSFSDGGSKLAHPGKADKGASCVRSPLSTDECTIQELEQKLLQRETALQKLQRSFDEKEFASGQTFEERPRRTRDELECLEPKSKLKPPSQKSQRTQQVLQLQVLQLQQEKRQLRQELESLMKEQDLLETKLRSYEREKTNFAPALEETQWEVCQKSGEISLLKQQLKESQLEVNTKASEILSLKAQLKDTRGKLDGMELKTQDLESALRTKGLELEVCENELQRKKNEAELLREKVNLLEQELMELRAQAALHPAPLGPPGVGLTFSEDIPALQRELDRLRAELKEERQGHDQMSSGFQHERLVWKEEKEKVIQYQRQLQQSYLAMYQRNQRLEKALQQLARGDGPGEPFEIDLEGADIPYEDIIATEI
Take B2: the binding result in test [2] is “binds”.

B3: SynGAP (protein, UniProt F6SEU4 1-1340)
chain: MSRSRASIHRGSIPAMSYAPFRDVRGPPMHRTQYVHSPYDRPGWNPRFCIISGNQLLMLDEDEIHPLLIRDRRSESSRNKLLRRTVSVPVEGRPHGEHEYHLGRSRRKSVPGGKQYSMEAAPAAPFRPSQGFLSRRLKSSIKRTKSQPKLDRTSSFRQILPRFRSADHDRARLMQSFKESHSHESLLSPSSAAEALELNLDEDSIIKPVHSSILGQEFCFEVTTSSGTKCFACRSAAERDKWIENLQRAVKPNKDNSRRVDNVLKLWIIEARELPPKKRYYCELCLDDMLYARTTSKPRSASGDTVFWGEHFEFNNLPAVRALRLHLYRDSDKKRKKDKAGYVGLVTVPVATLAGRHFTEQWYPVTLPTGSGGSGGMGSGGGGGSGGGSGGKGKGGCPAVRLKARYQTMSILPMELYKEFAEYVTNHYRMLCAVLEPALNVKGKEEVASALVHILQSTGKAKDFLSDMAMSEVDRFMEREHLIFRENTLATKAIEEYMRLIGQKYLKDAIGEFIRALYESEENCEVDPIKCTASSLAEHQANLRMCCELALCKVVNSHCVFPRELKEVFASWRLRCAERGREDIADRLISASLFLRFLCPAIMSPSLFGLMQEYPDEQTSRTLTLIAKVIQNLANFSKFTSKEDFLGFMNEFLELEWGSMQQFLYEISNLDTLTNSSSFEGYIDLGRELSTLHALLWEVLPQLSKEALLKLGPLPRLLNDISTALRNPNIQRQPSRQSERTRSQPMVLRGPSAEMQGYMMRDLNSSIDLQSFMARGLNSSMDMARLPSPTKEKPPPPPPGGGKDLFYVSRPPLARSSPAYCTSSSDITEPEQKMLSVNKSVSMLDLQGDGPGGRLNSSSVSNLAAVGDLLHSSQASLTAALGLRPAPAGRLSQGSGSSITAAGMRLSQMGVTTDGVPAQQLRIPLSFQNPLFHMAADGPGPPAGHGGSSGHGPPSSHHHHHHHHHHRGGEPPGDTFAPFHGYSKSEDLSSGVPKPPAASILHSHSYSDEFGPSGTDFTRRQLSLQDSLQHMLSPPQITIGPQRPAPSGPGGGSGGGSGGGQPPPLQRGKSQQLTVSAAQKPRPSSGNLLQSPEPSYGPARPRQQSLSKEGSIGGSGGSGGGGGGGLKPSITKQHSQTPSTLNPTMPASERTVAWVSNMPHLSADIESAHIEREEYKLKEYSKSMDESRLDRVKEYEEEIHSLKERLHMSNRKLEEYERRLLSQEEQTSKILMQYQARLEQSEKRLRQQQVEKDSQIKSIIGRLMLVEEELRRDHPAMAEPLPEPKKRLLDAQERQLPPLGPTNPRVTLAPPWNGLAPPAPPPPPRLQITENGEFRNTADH
In the case of B3, the binding result in test [2] is “no binding”.

B4: drebrin (protein, UniProt Q9QXS6 1-706)
chain: MAGVSFSGHRLELLAAYEEVIREESAADWALYTYEDGSDDLKLAASGEGGLQELSGHFENQKVMYGFCSVKDSQAALPKYVLINWVGEDVPDARKCACASHVAKVAEFFQGVDVIVNASSVEDIDAGAIGQRLSNGLARLSSPVLHRLRLREDENAEPVGTTYQKTDAAVEMKRINREQFWEQAKKEEELRKEEERKKALDARLRFEQERMEQERQEQEERERRYREREQQIEEHRRKQQSLEAEEAKRRLKEQSIFGDQRDEEEESQMKKSESEVEEAAAIIAQRPDNPREFFRQQERVASASGGSCDAPAPAPFNHRPGRPYCPFIKASDSGPSSSSSSSSSPPRTPFPYITCHRTPNLSSSLPCSHLDSHRRMAPTPIPTRSPSDSSTASTPIAEQIERALDEVTSSQPPPPPPPPPPTQEAQETTPSLDEELSKEAKVTAAPEVWAGCAAEPPQAQEPPLLQSSPLEDSMCTESPEQAALAAPAEPAASVTSVADVHAADTIETTTATTDTTIANNVTPAAASLIDLWPGNGEEASTLQAEPRVPTPPSGAEASLAEVPLLNEAAQEPLPPVGEGCANLLNFDELPEPPATFCDPEEEVGETLAASQVLTMPSALEEVDQVLEQELEPEPHLLTNGETTQKEGTQASEGYFSQSQEEEFAQSEEPCAKVPPPVFYNKPPEIDITCWDADPVPEEEEGFEGGD
On to B4, for which, in test [2], the binding result is listed as “binds”.
